From PubChem BioAssay AID504467 (National Center for Advancing Translational Sciences (NCATS), 2011)
The whole screen tested about 330,000 compounds, of which about 7,700 (2.3%) were called active. Inconclusive results, whose numbers are uncertain, are shown with a selection of clear calls. Calls come from the whole dose curve; as a rule, active = well fitted inhibition curve with a large enough effect; inconclusive = small, poorly fitted or top-dose-only effect, or effect the other way; inactive = flat fitted curve, though single readings scatter. Potencies of inconclusive entries are doubtful fits and often do not repeat.

Experiment: qHTS screen for small molecules that inhibit ELG1-dependent DNA repair in human embryonic kidney (HEK293T) cells expressing luciferase-tagged ELG1; note: nearly all actives have a fitted effect of over 55% in size
Conditions: HEK293T ELG1-luciferase reporter, luminescence, 16 h, DNA damage induced by 5-fluorouridine; activity change, negative = inhibition: at 46.1 µM (top of the series)
Procedure, shortened: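 Luminescence from the luciferase reporter, measured 30 min after ONE-Glo reagent at room temperature, was the read-out. Beforehand, 2,000 cells per well were exposed for 16 hr at 37 °C to 5-fluorouridine together with compound or vehicle.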
% is set by controls: 0 for no effect and ±100 for the full control effect; potency is the fitted concentration of half-maximal effect.

Row | SMILES | Potency | activity change, negative = inhibition
1 | CCN(CC)c1ccc2c(Cl)c(Br)c(=O)oc2c1 | inconclusive: 29.1 µM [inhibitor, single point] | –
2 | O=C(CSc1nnc(CNC(=O)C23CC4CC(CC(C4)C2)C3)n1-c1ccc(F)cc1)Nc1ccccc1 | inconclusive: 20.6 µM [inhibitor, partial curve] | –
3 | Cc1sc(NC(=O)C2=COCCO2)c(C#N)c1C | inconclusive: 20.6 µM [activator, partial curve] | –
4 | O=c1[nH]c(SCCOc2cccc3ccccc23)nc2ccccc12 | – | inactive: -7.03%
5 | CCCCN1CCC(COC(=O)c2cc(Cl)c(N)c3c2OCCO3)CC1 | – | inactive: -6.05%
6 | O=C1CCN(Cc2ccccc2)CCN1CCOc1ccccc1 | inconclusive: 5.17 µM [activator, full curve] | –
7 | O=C(NCc1ccc2c(c1)OCO2)c1cc(-c2ccccn2)nc2ccccc12 | inconclusive: 23.1 µM [inhibitor, single point] | –
8 | CC1=C(C#N)C(=O)N(C2CCS(=O)(=O)C2)C(=O)/C1=C\c1ccc(C)o1 (stereo not drawn) | – | inactive: 2.6%
9 | COc1ccccc1C(=O)NC(=O)Nc1cccc(Cl)c1 | inconclusive: 10.3 µM [activator, partial curve] | –
10 | O=C(CN1C(=O)NC2(CCCC2)C1=O)Nc1ccc(Cl)cc1C(F)(F)F | inconclusive: 20.6 µM [activator, partial curve, poor fit] | –
11 | Cc1c(C(=O)N(Cc2ccccc2)C(C)C)oc2ccc(S(=O)(=O)N3CCOCC3)cc12 | inconclusive: 25.9 µM [inhibitor, single point] | –
12 | c1ccc(OCc2nc3ccccc3[nH]2)cc1 | inconclusive: 9.2 µM [activator, partial curve] | –
13 | CCc1cccc(OCC2Cn3c(nc4c3c(=O)[nH]c(=O)n4C)O2)c1 (stereo not drawn) | – | inactive: -12.9%
14 | Nc1cccc2c1C(=O)N(CCOc1ccc(F)cc1)C2=O | inconclusive: 5.17 µM [activator, full curve] | –
15 | CC(C)(C)[C@H]1COC(=O)[C@@H](Cc2ccc(F)cc2)CC/C=C/C[C@@H](CC(=O)N[C@@H](CO)Cc2ccccc2)C(=O)N1 | active: 25.9 µM | –
16 | Cc1ccnc(NC(=O)CNC(=O)c2ccc(Br)o2)c1 | inconclusive: 7.94 µM [activator, partial curve, poor fit] | –
17 | Cc1ccc(Cn2ccnc2C(=O)Nc2ccccc2)cc1 | inconclusive: 8.2 µM [activator, partial curve] | –
18 | COC(=O)c1ccc(S(=O)(=O)N2CCCN(Cc3cccc(Br)c3F)CC2)n1C | inconclusive: 14.6 µM [inhibitor, partial curve] | –
19 | CCn1nnc(-c2ccccc2NC(=O)c2ccc(-n3cnnn3)cc2)n1 | – | inactive: -10.4%
20 | Cc1ccc(C(C)C)cc1OCC(=O)NCCCn1ccnc1 | – | inactive: -1.46%
21 | O=C(CSc1ncnc2scc(-c3ccccc3)c12)N1CCN(c2ccccc2F)CC1 | inconclusive: 25.9 µM [inhibitor, single point] | –
22 | O=C(CSc1nc2c(sc3ccccc32)c(=O)n1-c1ccccc1)NCc1ccco1 | inconclusive: 20.6 µM [inhibitor, single point] | –
23 | COC(=O)c1ccsc1NC(=O)CSc1nnnn1-c1ccccc1SC | inconclusive: 22.4 µM [inhibitor, single point] | –

Row | SMILES | Potency | activity change, negative = inhibition
24 | Cc1ccc(-n2c(CCC(=O)O)ccc2-c2cccs2)cc1C | – | inactive: 6.39%
25 | Cc1ccc(/C=N/NC(=O)c2ccco2)s1 | inconclusive: 18.4 µM [activator, partial curve] | –
26 | Cc1cc(N2CCCCC2)n2ncc(-c3ccccc3)c2n1 | inconclusive: 1.03 µM [activator, partial curve, poor fit] | –
27 | O=C(Cc1cccc2ccccc12)Nc1nnc(-c2cccc([N+](=O)[O-])c2)s1 | – | inactive: -8.69%
28 | Cc1nc2ccc(NC(=O)c3ccc([N+](=O)[O-])cc3)cc2s1 | inconclusive: 6.51 µM [inhibitor, partial curve, poor fit] | –
29 | N#Cc1ccccc1NCc1ccccc1 | inconclusive: 20.6 µM [activator, single point] | –
30 | CCOC(=O)N/N=C\C=C\c1ccc2c(c1)OCO2 | inconclusive: 20.6 µM [activator, partial curve] | –
31 | O=C(Nc1ccc2c(c1)CCC2)C1CCN(c2c3c(nc4ncnn24)CCC3)CC1 | inconclusive: 29.1 µM [inhibitor, single point] | –
32 | Cc1cc(C(=O)COC(=O)c2cccn2C)c(C)n1Cc1ccco1 | inconclusive: 0.517 µM [activator, full curve] | –
33 | CCOC(=O)c1cc2c(=O)c3ccccc3oc2nc1C | inconclusive: 10.3 µM [activator, partial curve] | –
34 | COc1ccc(OCC(=O)Nc2nnc(S(=O)(=O)N3CCCCCC3)s2)cc1 | – | inactive: -13.9%
35 | O=C(Nc1ccccc1OC(F)F)c1cc2c(s1)CCC2 | inconclusive: 20.6 µM [activator, partial curve] | –
36 | O=C(CCC(=O)Nc1ccc(Cl)cc1Cl)N/N=C/c1ccc([N+](=O)[O-])o1 | inconclusive: 18.3 µM [inhibitor, partial curve] | –
37 | CCCCNC(=O)NCc1cnn(C)c1C | inconclusive: 20.6 µM [activator, single point] | –
38 | O=C(COC(=O)c1ccc2ncsc2c1)NCc1cccc(Cl)c1 | inconclusive: 18.3 µM [activator, single point] | –
39 | CCn1c(-c2ccccc2Cl)nn(CC(=O)Nc2cc(Cl)ccc2Cl)c1=S | inconclusive: 14.6 µM [inhibitor, partial curve, poor fit] | –
40 | Cc1ccc(CCNC(=O)C2=CCN(S(=O)(=O)c3ccccc3)CC2)cc1 | – | inactive: 1.13%
41 | COc1ccc(C(=O)[C@H]2[C@H]3C(=O)N(c4ccc(C)cc4)C(=O)[C@H]3C3C=CC=NN32)cc1 (stereo partly drawn) | inconclusive: 18.3 µM [activator, single point] | –
42 | FC(F)(F)c1cc(Oc2ccccc2)ncc1-c1nnc(-c2ccccc2Cl)o1 | inconclusive: 25.9 µM [inhibitor, partial curve] | –
43 | Cc1ccc(OC(=O)c2ccc(S(=O)(=O)N(C)C)cc2)c(-n2nc3ccccc3n2)c1 | inconclusive: 13 µM [activator, partial curve, poor fit] | –
44 | O=[N+]([O-])c1ccc(CSc2nc3ccccc3o2)cc1 | inconclusive: 9.2 µM [activator, partial curve] | –
45 | CCCc1ccc(Oc2cc(Cl)nc(N)n2)cc1 | inconclusive: 16.4 µM [activator, partial curve] | –
46 | CN1CCN(Cc2nc3ccccc3c(=O)n2Cc2nc(-c3ccccc3F)cs2)CC1 | active: 16.4 µM | –

2 records drawn at random from those above:
Row | SMILES | Potency | activity change, negative = inhibition
3 | Cc1sc(NC(=O)C2=COCCO2)c(C#N)c1C | inconclusive: 20.6 µM [activator, partial curve] | –
42 | FC(F)(F)c1cc(Oc2ccccc2)ncc1-c1nnc(-c2ccccc2Cl)o1 | inconclusive: 25.9 µM [inhibitor, partial curve] | –

Further results.

Row | SMILES | Potency | activity change, negative = inhibition
47 | O=C(c1ccc(S(=O)(=O)N2CCCC2)cc1)N1CCN(c2ccccc2)CC1 | – | inactive: -7.36%
48 | CC(C)Cc1nc2ccccc2n1CCc1ccccc1 | – | inactive: -2.31%
49 | Cc1ccc(OCc2nc3ccccc3[nH]2)cc1 | inconclusive: 1.3 µM [activator, full curve] | –
50 | CC1CCCCN1C(=O)c1cc(S(=O)(=O)N2CCCCC2)c[nH]1 (stereo not drawn) | – | inactive: 1.73%
51 | COc1ccc(C(=O)c2oc3ccc(OC)cc3c2NC(C)=O)cc1 | – | inactive: 6.42%
52 | COc1ccc([C@H]2CC(=O)C=C(c3ccc4cc[nH]c4c3)C2)cc1 | inconclusive: 18.3 µM [inhibitor, single point] | –
53 | CCOC(=O)c1c(C)[nH]c(C(=O)OCC(=O)NCCc2ccc(OCC)c(OCC)c2)c1C | inconclusive: 11.6 µM [inhibitor, single point] | –
54 | C[C@H](CO)N1C[C@H](C)[C@@H](CN(C)Cc2ccc(C(=O)O)cc2)Oc2c(NS(=O)(=O)c3ccc(F)cc3)cccc2C1=O | inconclusive: 23.1 µM [activator, partial curve, poor fit] | –
55 | CC(C)[C@H](NC(=O)N1c2ccccc2NC(=O)[C@@H]1C(C)C)C(=O)N[C@@H](Cc1ccccc1)C(=O)O | inconclusive: 8.2 µM [activator, single point] | –
56 | CN(c1ccccc1)S(=O)(=O)c1ccc(NC(=S)NC(=O)c2ccccc2)cc1 | inconclusive: 18.4 µM [inhibitor, single point] | –
57 | Cn1cc(CCC(=O)NCc2cccc(Cl)c2)c2ccccc21 | inconclusive: 0.092 µM [inhibitor, full curve, poor fit] | –
58 | O=C(NC1CCCC1)c1cc2cc(Br)ccc2o1 | inconclusive: 20.6 µM [activator, partial curve] | –
59 | CCC(CO)[n+]1c(C)cc(/C=C2\Sc3ccccc3N2Cc2ccccc2)cc1C (stereo not drawn) | inconclusive: 6.51 µM [inhibitor, partial curve] | –
60 | Cc1ccc(S(=O)(=O)N2CCC(C(=O)OCC(=O)NCc3cccc(Cl)c3)CC2)cc1C | inconclusive: 25.9 µM [activator, single point] | –
61 | CC(=O)C1=C(O)C(=O)N(c2ccccn2)C1c1cccc(F)c1 (stereo not drawn) | – | inactive: -4.44%
62 | CCOc1ccc(NC(=O)CN(C)C(=O)CCc2ccccc2Cl)cc1OCC | – | inactive: 1.91%
63 | O=C(Nc1cccc(C(=O)O)c1)Nc1ccccc1Cl | inconclusive: 0.82 µM [activator, full curve] | –
64 | CC1CCCC(NC(=O)c2ccc3c(c2)N(Cc2ccccc2)C(=O)CS3=O)C1C (stereo not drawn) | inconclusive: 32.6 µM [activator, single point] | –
65 | Cc1cccc(-n2nnc3c(=O)n(CC(=O)Nc4cc(C)on4)cnc32)c1 | – | inactive: -15.8%
66 | O=C(Nc1nccs1)c1ccc2ccccc2c1 | inconclusive: 1.83 µM [activator, full curve] | –
67 | c1ccc(C2NCCn3cccc32)cc1 (stereo not drawn) | inconclusive: 20.6 µM [activator, partial curve, poor fit] | –
68 | Cc1ccc(NC(=O)C2CCCN(S(=O)(=O)c3c(C)noc3C)C2)c(Br)c1 (stereo not drawn) | inconclusive: 32.6 µM [inhibitor, partial curve, poor fit] | –
